Reference: PubChem BioAssay AID248 (DTP/NCI, 2004)
The list is a part of this screen's results and no random one: it is rich in T/C values a quarter to a half above the control, in often repeated tests (any T/C) and in doses without a T/C. Other doses and runs of a compound stand elsewhere. T/C: endpoint of the treated group in % of that of the vehicle group. Some doses have a count of surviving animals in place of a T/C: the source holds a T/C of zero for them, seemingly a mark for toxic or unscored doses. Some doses without a T/C left all or most animals alive at the check, yet need not have been tolerated: survival well below the control is almost never listed, so the zero probably covers shortened survival too. Survivors were counted at the toxicity check, usually on the fifth day, unless a day is given; later deaths do not show. Schedule codes are those of the source, taken here to give the interval after Q, in days (D) or hours (H), and the number of doses after X. Some doses were run more than once; the values are given in rising order. Where survival is the endpoint, this PubChem deposit counts one and a half times the control or more as active, and values a quarter to a half above the control carry no call in these data; other NCI protocols may use other cut-offs. Brackets with × say how often a value occurs here.

Test system: L1210 leukemia ip in BDF1 mice, survival T/C
Assay: NCI In Vivo Anticancer Drug Screen. Data for tumor model L1210 Leukemia (intraperitoneal) in B6D2F1 (BDF1) mice
Conditions: T/C endpoint: mean survival time, higher T/C = longer survival

For `CN(C)c1nc(N(C)C)nc(N(C)C)n1`, the T/C (dose: 22.0 mg/kg/injection, schedule: Q01DX009 (ip), vehicle: saline with Tween-80) was 97, 100, 104, 110 % of control, the T/C (dose: 43.0 mg/kg/injection, schedule: Q01DX009 (ip), vehicle: saline with Tween-80) was 101 (2×), 107, 116 % of control and the survivor count (dose: 45.0 mg/kg/injection, schedule: Q03HX040 (ip), vehicle: saline) was 6 of 6. The survivor count (dose: 60.0 mg/kg/injection, schedule: Q06HX020 (ip), vehicle: saline) was 6 of 6, the survivor count (dose: 67.5 mg/kg/injection, schedule: Q03HX040 (ip), vehicle: saline) was 2 of 6 and the T/C (dose: 86.0 mg/kg/injection, schedule: Q01DX009 (ip), vehicle: saline with Tween-80) was 95, 101, 121, 125 % of control. For the same molecule, the survivor count (dose: 90.0 mg/kg/injection, schedule: Q06HX020 (ip), vehicle: saline) was 6 of 6, the survivor count (dose: 135.0 mg/kg/injection, schedule: Q03HX040 (ip), vehicle: saline) was 0 of 6 and the survivor count (dose: 135.0 mg/kg/injection, schedule: Q06HX020 (ip), vehicle: saline) was 1 of 6. For the same molecule, the survivor count (dose: 160.0 mg/kg/injection, schedule: Q01DX005 (ip), vehicle: acetone) was 4 of 7 and 7 of 7, the T/C (dose: 172.0 mg/kg/injection, schedule: Q01DX009 (ip), vehicle: saline with Tween-80) was 104, 111, 116, 125 % of control and the survivor count (dose: 200.0 mg/kg/injection, schedule: Q12HX010 (ip), vehicle: saline) was 6 of 6. The survivor count (dose: 270.0 mg/kg/injection, schedule: Q06HX020 (ip), vehicle: saline) was 0 of 6, the survivor count (dose: 320.0 mg/kg/injection, schedule: Q01DX009 (ip), vehicle: Klucel (hydroxypropylcellulose) (HPC)) was 5 of 6 and the survivor count (dose: 400.0 mg/kg/injection, schedule: Q01DX009 (ip), vehicle: saline with Tween-80) was 6 of 10. For the same molecule, the survivor count (dose: 400.0 mg/kg/injection, schedule: Q12HX010 (ip), vehicle: saline) was 0 of 6, the survivor count (dose: 800.0 mg/kg/injection, schedule: Q12HX010 (ip), vehicle: saline) was 0 of 6 and the survivor count (dose: 1000.0 mg/kg/injection, schedule: Q01DX001 (ip), vehicle: other) was 2 of 6.
With `O=C=Nc1ccc(CCc2ccc(N=C=O)cc2)cc1` the survivor count (dose: 400.0 mg/kg/injection, schedule: Q01DX009 (ip), vehicle: saline) was 4 of 6.
`CC1(C)CC(=O)C2C(C1)Nc1ccccc1NC2c1cccc([N+](=O)[O-])c1` (stereo not given) was tested, and the survivor count (dose: 400.0 mg/kg/injection, schedule: Q04DX002 (ip), vehicle: Klucel (hydroxypropylcellulose) (HPC)) was 2 of 3.
